Values are raw readings; no control value is given beside them.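 Values average three technical replicates, each on its own plate. On all plates, reagent-free control wells corrected for intrinsic cell fluorescence and DMSO-treated wells acted as vehicle controls. No hit or active cutoff is set for these live-cell readings.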
Columns and labels:
[1] = test system: U-2 OS; experiment: AUC of caspase 3/7-positive object count (AUC (object count x time)); higher = more apoptotic or dead cells
Procedure: (§1)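 Live-cell Incucyte imaging of U-2 OS cells with Caspase-3/7 Green and Cytotox Red reagents. Compounds were tested mostly at 5, 10 and 20 uM, and cells were imaged every 4 h for up to 60 h. Value is the area under the curve of positive object counts over time, per channel: green = caspase 3/7, red = membrane-compromised, overlap = both.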

[2] = test system: U-2 OS; experiment: AUC of Cytotox red (membrane-compromised) object count (AUC (object count x time)); higher = more apoptotic or dead cells
Procedure: as §1

Row | Compound | AUC of caspase 3/7-positive object count ([1]; 5 µM) | AUC of caspase 3/7-positive object count ([1]; 10 µM) | AUC of caspase 3/7-positive object count ([1]; 20 µM) | AUC of Cytotox red ([2]; 5 µM) | AUC of Cytotox red ([2]; 10 µM) | AUC of Cytotox red ([2]; 20 µM) | AUC of caspase 3/7-positive object count ([1]; 40 µM) | AUC of caspase 3/7-positive object count ([1]; 80 µM) | AUC of Cytotox red ([2]; 40 µM) | AUC of Cytotox red ([2]; 80 µM) | AUC of caspase 3/7-positive object count ([1]; 0.625 µM) | AUC of caspase 3/7-positive object count ([1]; 1.25 µM) | AUC of caspase 3/7-positive object count ([1]; 2.5 µM) | AUC of Cytotox red ([2]; 0.625 µM) | AUC of Cytotox red ([2]; 1.25 µM) | AUC of Cytotox red ([2]; 2.5 µM)
1 | Nc1ccn([C@@H]2O[C@H](CO)[C@@H](O)C2(F)F)c(=O)n1 | 43 | 64.4 | 66.5 | 35.8 | 47.4 | 35.1 | – | – | – | – | – | – | – | – | – | –
2 | CC(=O)N[C@@H](CCCCNC(=O)CSCCNC(=O)CCNC(=O)[C@H](O)C(C)(C)COP(=O)(O)OP(=O)(O)OC[C@H]1O[C@@H](n2cnc3c(N)ncnc32)[C@H](O)[C@@H]1OP(=O)(O)O)C(N)=O.O=C(O)C(F)(F)F | 33.9 | 56.4 | 48.2 | 47.2 | 65.3 | 61.3 | – | – | – | – | – | – | – | – | – | –
3 | CN1C(=O)[C@]23CC4=CC=C[C@H](O)[C@H]4N2C(=O)[C@@]1(CO)SS3 | 564 | 403 | 702 | 946 | 819 | 866 | – | – | – | – | – | – | – | – | – | –
4 | COc1cc(/C=C/c2cc(/C=C/c3ccc(O)c(OC)c3)n(-c3ccc(C(=O)[O-])cc3)n2)ccc1O.[Na+] | 32.1 | 61.7 | 66.9 | 26.8 | 33.5 | 51.1 | 111 | 84.3 | 50.7 | 71.3 | – | – | – | – | – | –
5 | C[C@@]1(CO)[C@H](O)CC[C@@]2(C)[C@H]1CC[C@H]1C[C@@H]3C[C@@]12CC[C@]3(O)CO | 61 | 60.4 | 87.8 | 23.9 | 31.4 | 39.1 | – | – | – | – | – | – | – | – | – | –
6 | C=C(C)[C@H]1Cc2c(ccc3c2O[C@@H]2COc4cc(OC)c(OC)cc4[C@@H]2C3=O)O1 | 340 | 449 | 487 | 505 | 694 | 723 | – | – | – | – | – | – | – | – | – | –
7 | CCCCCC[C@H]1C(=O)O[C@H](C)[C@H](NC(=O)c2cccc(NC=O)c2O)C(=O)O[C@@H](C)[C@@H]1OC(=O)CC(C)C | 23.7 | 28.8 | 51.3 | 43.9 | 48 | 60.9 | – | – | – | – | – | – | – | – | – | –
8 | CC(C)[C@H]1OC(=O)[C@H](Cc2ccccc2)N(C)C(=O)[C@@H](C(C)C)OC(=O)[C@H](Cc2ccccc2)N(C)C(=O)[C@@H](C(C)C)OC(=O)[C@H](Cc2ccccc2)N(C)C1=O | 552 | 206 | 614 | 1030 | 318 | 1880 | – | – | – | – | – | – | – | – | – | –
9 | O=c1c(O)c(-c2ccc(O)c(O)c2)oc2cc(O)ccc12 | 58.1 | 58.2 | 143 | 19.7 | 9.63 | -0.286 | – | – | – | – | – | – | – | – | – | –
10 | COc1cc(=O)oc(/C=C/C=C/C=C/C(C)=C/[C@]2(C)O[C@H](C)[C@](C)(O)[C@H]2O)c1C | 20.1 | 59.1 | 39.3 | 38.8 | 71.2 | 67.4 | – | – | – | – | – | – | – | – | – | –
11 | COC(=O)Nc1nc2ccc(C(=O)c3cccs3)cc2[nH]1 | 488 | 528 | 834 | 523 | 523 | 721 | – | – | – | – | 404 | 406 | 540 | 422 | 440 | 596
12 | CC(C)[C@H](C(=O)Nc1ccc(C(=O)NO)cc1)c1ccccc1 | 873 | 909 | 877 | 603 | 540 | 119 | – | – | – | – | – | – | – | – | – | –
13 | N[C@@H](Cc1ccc(N(CCCl)CCCl)cc1)C(=O)O | 34.6 | 40.5 | 127 | 58 | 70 | 165 | – | – | – | – | – | – | – | – | – | –
14 | COc1cc(OC)c2ccccc2c1C=C1C(=O)NC(=S)NC1=O | 362 | 161 | 77.2 | 236 | 136 | 91.7 | – | – | – | – | – | – | – | – | – | –
15 | c1ccc(-c2noc(NC3CCCC3)n2)cc1 | 34.3 | 39.9 | 32.9 | 41.8 | 57.9 | 42.3 | – | – | – | – | – | – | – | – | – | –
16 | O=S1(=O)CC(N2CCCC2)c2ccccc21 (centres undefined) | 43.2 | – | – | 28.4 | – | – | – | – | – | – | – | – | – | – | – | –
17 | NC(=O)c1ccc(I)c([N+](=O)[O-])c1 | 74.2 | 75.9 | 50.6 | 49 | 54.5 | 37 | – | – | – | – | – | – | – | – | – | –
18 | CN1CCN(CCOc2cc(OC3CCOCC3)c3c(Nc4c(Cl)ccc5c4OCO5)ncnc3c2)CC1 | 213 | 238 | 256 | 118 | 137 | 181 | – | – | – | – | – | – | – | – | – | –
19 | C=CC(=O)Nc1cc2c(Nc3ccc(F)c(Cl)c3)ncnc2cc1OCCCN1CCOCC1 | 502 | 1150 | 1090 | 252 | 886 | 1220 | – | – | – | – | – | – | – | – | – | –
20 | COc1cc([C@@H]2c3cc4c(cc3[C@@H](O[C@@H]3O[C@@H]5CO[C@@H](C)O[C@H]5[C@H](O)[C@H]3O)[C@H]3COC(=O)[C@H]23)OCO4)cc(OC)c1O | 130 | 143 | 476 | 85.9 | 104 | 326 | – | – | – | – | – | – | – | – | – | –
21 | CCCCCCCCCCCCCCCc1cccc(O)c1C(=O)O | 42 | 39.2 | 52 | 33.2 | 34.5 | 28.8 | 36.4 | 76.2 | 19.1 | 81.7 | – | – | – | – | – | –
22 | Nc1nccc2c1ncn2[C@@H]1C=C(CO)[C@@H](O)[C@H]1O | 68.3 | 53.6 | 79.7 | 42.7 | 37.3 | 81.8 | – | – | – | – | – | – | – | – | – | –
23 | Nc1nc(Cl)nc2c1ncn2[C@H]1C[C@H](O)[C@@H](CO)O1 | 121 | 154 | 170 | 78.9 | 96.1 | 102 | – | – | – | – | – | – | – | – | – | –
24 | Cc1cnc(CNC(=O)c2c(=O)c3ccc(N4CCCN(C)CC4)nc3n3c2sc2ccccc23)cn1 | 75 | 139 | 104 | 94.3 | 128 | 80.3 | – | – | – | – | – | – | – | – | – | –

Arranged by length of the SMILES (high to low): part of the list above.
Row | Compound | AUC of caspase 3/7-positive object count ([1]; 5 µM) | AUC of caspase 3/7-positive object count ([1]; 10 µM) | AUC of caspase 3/7-positive object count ([1]; 20 µM) | AUC of Cytotox red ([2]; 5 µM) | AUC of Cytotox red ([2]; 10 µM) | AUC of Cytotox red ([2]; 20 µM) | AUC of caspase 3/7-positive object count ([1]; 40 µM) | AUC of caspase 3/7-positive object count ([1]; 80 µM) | AUC of Cytotox red ([2]; 40 µM) | AUC of Cytotox red ([2]; 80 µM) | AUC of caspase 3/7-positive object count ([1]; 0.625 µM) | AUC of caspase 3/7-positive object count ([1]; 1.25 µM) | AUC of caspase 3/7-positive object count ([1]; 2.5 µM) | AUC of Cytotox red ([2]; 0.625 µM) | AUC of Cytotox red ([2]; 1.25 µM) | AUC of Cytotox red ([2]; 2.5 µM)
20 | COc1cc([C@@H]2c3cc4c(cc3[C@@H](O[C@@H]3O[C@@H]5CO[C@@H](C)O[C@H]5[C@H](O)[C@H]3O)[C@H]3COC(=O)[C@H]23)OCO4)cc(OC)c1O | 130 | 143 | 476 | 85.9 | 104 | 326 | – | – | – | – | – | – | – | – | – | –
13 | N[C@@H](Cc1ccc(N(CCCl)CCCl)cc1)C(=O)O | 34.6 | 40.5 | 127 | 58 | 70 | 165 | – | – | – | – | – | – | – | – | – | –
17 | NC(=O)c1ccc(I)c([N+](=O)[O-])c1 | 74.2 | 75.9 | 50.6 | 49 | 54.5 | 37 | – | – | – | – | – | – | – | – | – | –
